{
  "source": "paper doi:10.1101/2022.11.28.518246",
  "binders": {"B1": {"name": "SEC11A-Myc-FLAG (enzyme, UniProt P67812 1-179)", "chain": "MLSLDFLDDVRRMNKRQLYYQVLNFGMIVSSALMIWKGLMVITGSESPIVVVLSGSMEPAFHRGDLLFLTNRVEDPIRVGEIVVFRIEGREIPIVHRVLKIHEKQNGHIKFLTKGDNNAVDDRGLYKQGQHWLEKKDVVGRARGFVPYIGIVTILMNDYPKFKYAVLFLLGLFVLVHRE"}},
  "molecular_target": "iRhom2_ΔIRHD (human) (UniProt Q6PJF5)",
  "test": "co-IP",
  "note": "No constants are given. Whether binding was seen depends on the method and setting. In cells and extracts the contact can be indirect. A result given as binding can be weak or reduced; the word gives no strength. Where a sequence is shown, tags or fusion partners need not be part of it.",
  "data": [
    {"binder": "B1", "values": [
      {"measurement": "binding", "value": "binds"}
    ]}
  ]
}
